Source: patent US20160002297A1, “THERAPEUTIC AGENTS” (NATIONAL UNIVERSITY OF SINGAPORE, priority 2013, published 2016)
No constants are given. Whether binding was seen depends on the method and setting. Binding seen in cells or lysates may run through a third protein. Binding can be weak; no strength is given.

Amino acid sequences for entries named in this document (tags omitted). A change or cut given only in a name is not applied to a line headed by its entry. Residues count along the entry.
UniProt P11021, residues 19-654: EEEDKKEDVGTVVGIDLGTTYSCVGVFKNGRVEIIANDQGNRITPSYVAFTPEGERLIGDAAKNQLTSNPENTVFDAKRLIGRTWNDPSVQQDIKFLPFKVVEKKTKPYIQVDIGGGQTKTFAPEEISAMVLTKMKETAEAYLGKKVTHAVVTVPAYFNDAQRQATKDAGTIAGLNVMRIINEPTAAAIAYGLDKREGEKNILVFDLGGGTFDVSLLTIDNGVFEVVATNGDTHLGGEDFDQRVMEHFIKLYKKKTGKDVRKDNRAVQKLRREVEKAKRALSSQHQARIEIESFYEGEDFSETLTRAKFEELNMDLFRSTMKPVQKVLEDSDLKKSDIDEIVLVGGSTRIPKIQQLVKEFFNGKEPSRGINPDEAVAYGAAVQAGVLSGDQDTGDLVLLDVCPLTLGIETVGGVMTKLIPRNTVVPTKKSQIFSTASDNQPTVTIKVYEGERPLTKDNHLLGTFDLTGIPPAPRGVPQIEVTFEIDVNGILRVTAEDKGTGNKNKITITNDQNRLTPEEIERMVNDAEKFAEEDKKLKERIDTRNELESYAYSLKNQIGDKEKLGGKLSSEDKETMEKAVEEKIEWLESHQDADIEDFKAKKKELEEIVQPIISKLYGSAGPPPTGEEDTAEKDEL
UniProt A2ATD1: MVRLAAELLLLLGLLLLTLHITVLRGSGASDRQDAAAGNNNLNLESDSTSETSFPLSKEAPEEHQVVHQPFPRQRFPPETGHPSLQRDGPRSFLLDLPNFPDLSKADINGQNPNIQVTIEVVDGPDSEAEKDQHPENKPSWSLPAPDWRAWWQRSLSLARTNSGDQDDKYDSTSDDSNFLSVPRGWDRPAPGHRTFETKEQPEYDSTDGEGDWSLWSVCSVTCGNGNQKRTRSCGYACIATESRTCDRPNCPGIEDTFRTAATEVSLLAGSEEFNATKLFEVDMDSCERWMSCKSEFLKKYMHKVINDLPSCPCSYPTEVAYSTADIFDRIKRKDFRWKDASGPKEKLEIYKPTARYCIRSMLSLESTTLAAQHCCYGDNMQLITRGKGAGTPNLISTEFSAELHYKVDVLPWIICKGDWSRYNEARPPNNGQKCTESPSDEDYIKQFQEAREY

Experiments:
[1] = target: T1, GRP78, purified recombinant protein (UniProt P11021 19-654, limits assumed); test: co-immunoprecipitation with anti-GRP78 antibody, immunoblot with anti-ISM antibody
T1 construct: also called glucose-regulated protein 78 kDa; BiP

[2] = target: T1, GRP78, purified recombinant protein; test: co-immunoprecipitation of purified recombinant proteins

Question: With “Isthmin (ISM), recombinant His-tagged protein (from UniProt A2ATD1) (ligand)” as the substance, how does the binding [1] read?
Answer: Its binding is “binds”.

Question: What about the binding [2] of the same substance?
Answer: Its binding is “binds”.
